The target of this test is Snap-tagged MreB (E. coli) (UniProt P0A9X4). Put plainly: pull-down; cleared lysate of the Snap-tagged MreB E. coli strain incubated for different times with Snap capture beads; EF-Tu detected by western blotting with an EF-Tu antibody. On the technique in general: Immunoblotting shows a protein as a band on a membrane.

Sequences of proteins named here, by UniProt entry; tags and fusion partners are left off. A change or cut given only in a name is not applied to a line headed by its entry.
UniProt P0A9X4: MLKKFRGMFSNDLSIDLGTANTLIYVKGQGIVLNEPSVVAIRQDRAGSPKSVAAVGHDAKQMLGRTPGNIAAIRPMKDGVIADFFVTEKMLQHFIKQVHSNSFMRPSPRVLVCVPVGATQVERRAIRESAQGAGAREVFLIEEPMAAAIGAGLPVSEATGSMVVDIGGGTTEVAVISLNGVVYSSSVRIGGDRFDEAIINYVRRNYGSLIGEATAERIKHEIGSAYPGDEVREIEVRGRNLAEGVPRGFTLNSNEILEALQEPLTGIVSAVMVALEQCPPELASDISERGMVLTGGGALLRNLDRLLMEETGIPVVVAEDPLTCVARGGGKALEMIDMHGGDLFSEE
UniProt P0CE47: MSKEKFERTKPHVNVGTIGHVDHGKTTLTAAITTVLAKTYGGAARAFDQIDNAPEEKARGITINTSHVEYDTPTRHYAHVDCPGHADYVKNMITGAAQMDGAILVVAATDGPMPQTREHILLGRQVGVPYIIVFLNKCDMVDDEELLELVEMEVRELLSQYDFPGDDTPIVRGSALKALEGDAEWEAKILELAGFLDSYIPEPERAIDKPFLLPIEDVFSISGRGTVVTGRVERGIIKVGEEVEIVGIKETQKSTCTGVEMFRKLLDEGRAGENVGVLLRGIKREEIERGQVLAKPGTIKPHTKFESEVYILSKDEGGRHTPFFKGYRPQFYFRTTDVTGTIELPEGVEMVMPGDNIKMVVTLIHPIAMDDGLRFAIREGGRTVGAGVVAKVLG

Results are given in words; binding and its absence hold for the method and conditions named. Binding seen in cells or lysates may run through a third protein. A result given as binding can be weak or reduced; the word gives no strength.

For EF-Tu (from UniProt P0CE47), the binding result was “binds”.

The values are drawn from PMC4109008.
